# Laboratory results reported in PubChem BioAssay (EPA / NIEHS).
# The inconclusive results got no clear call from the source; some entries with a clear call stand among them for comparison. A potency beside an inconclusive call is a rough fit, not a confirmed value. The source made the active and inactive calls. The calls were made as follows: active = hit-call score of the fitted dose curve at least 0.9, where 1 is the maximum; inconclusive = response in the unintended direction; inactive = score below 0.9.
# Read-out: sulfotransferase (SULT2A), SULT2A1 (gene 6822)
# Assay: CLD_SULT2A_6hr: CellzDirect (CLD) Gene Expression Assay for sulfotransferase (SULT2A) at 6 hours (AID 2283669);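 also: hits raise transcript level above the DMSO vehicle baseline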
# Summary of the method: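 Primary human hepatocytes from two donor preparations were dosed daily with chemicals or 0.2% DMSO and harvested at 6 h. Transcript induction read by qNPA chemiluminescence, fitted for gain of signal relative to DMSO; morphology-based cytotoxicity annotated.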
Structure (SMILES),AC50,outcome
CCc1nn(C)c(C(=O)NCc2ccc(C(C)(C)C)cc2)c1Cl,active: 2800 nM,
Nc1c(Cl)cc([N+](=O)[O-])cc1Cl,inconclusive: 13.1 nM,
CCNc1nc(Cl)nc(NCC)n1,inconclusive: 3.1 nM,
O=C(Nc1ccccc1)Nc1cnns1,,inactive
CC(C)OC(=O)Nc1cccc(Cl)c1,inconclusive: 0.482 nM,

# Read-out: not listed separately
# Assay: CLD_ACTIN_24hr: CellzDirect (CLD) Gene Expression Assay for Baseline Control (Actin) at 24 hours (AID 2283670)
# Summary of the method: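 Primary human hepatocytes dosed over multiple concentrations with 0.2% DMSO vehicle; actin mRNA measured at 24 h by qNPA chemiluminescence. Background control endpoint, fitted as gain of signal versus DMSO.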
Structure (SMILES),AC50,outcome
Nc1c(Cl)cc([N+](=O)[O-])cc1Cl,inconclusive: 20000 nM,
CCNc1nc(Cl)nc(NCC)n1,,inactive
CCOc1nc(NC)nc(NC(=O)NS(=O)(=O)c2ccccc2C(=O)OC)n1,,inactive
O=C(Nc1ccccc1)Nc1cnns1,inconclusive: 20000 nM,
Cc1ccn2nc(S(=O)(=O)Nc3c(F)cccc3F)nc2n1,,inactive
CC(C)OC(=O)Nc1cccc(Cl)c1,inconclusive: 5110 nM,
CCCN(CCOc1c(Cl)cc(Cl)cc1Cl)C(=O)n1ccnc1,inconclusive: 1890 nM,
COc1cnc(OC)n2nc(NS(=O)(=O)c3c(OCC(F)F)cccc3C(F)(F)F)nc12,,inactive
